Results are percentages, as filed.
The controls that fix the scale are not given in the record; negative values are as filed.
This is an unselected part of the compounds tested.
A dash means the value is not listed here; it may have been measured.

The chains behind the UniProt entries cited, without tags or fusion partners.
UniProt E9BF75, entry or part of it: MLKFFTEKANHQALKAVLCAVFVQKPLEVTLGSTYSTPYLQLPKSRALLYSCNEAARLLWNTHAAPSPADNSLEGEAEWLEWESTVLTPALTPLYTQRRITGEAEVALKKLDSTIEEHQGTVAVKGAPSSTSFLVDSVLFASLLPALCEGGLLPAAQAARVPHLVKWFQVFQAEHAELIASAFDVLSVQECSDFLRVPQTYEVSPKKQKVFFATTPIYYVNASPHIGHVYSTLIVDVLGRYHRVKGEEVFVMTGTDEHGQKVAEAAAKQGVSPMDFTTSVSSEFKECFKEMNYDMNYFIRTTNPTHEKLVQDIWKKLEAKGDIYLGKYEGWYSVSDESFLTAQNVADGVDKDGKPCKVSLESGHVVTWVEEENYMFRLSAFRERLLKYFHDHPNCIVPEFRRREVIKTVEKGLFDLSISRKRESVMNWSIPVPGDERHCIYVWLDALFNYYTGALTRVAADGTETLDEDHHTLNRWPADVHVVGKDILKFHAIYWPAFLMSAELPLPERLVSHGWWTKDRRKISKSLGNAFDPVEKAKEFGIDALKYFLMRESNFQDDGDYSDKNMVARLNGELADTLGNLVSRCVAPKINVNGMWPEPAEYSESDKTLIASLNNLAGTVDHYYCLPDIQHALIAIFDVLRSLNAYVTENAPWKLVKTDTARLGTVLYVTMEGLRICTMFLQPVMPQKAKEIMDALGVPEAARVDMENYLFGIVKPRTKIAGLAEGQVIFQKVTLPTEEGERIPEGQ

LdMetRS: 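Primary screen of methionyl-tRNA synthetase; the read-out is not stated. Target: Methionyl-tRNA synthetase (putative), Leishmania donovani (UniProt E9BF75). The test concentration is not given. The values are filed as inhibition. Of about 68,000 compounds tested this way, about 24 (0.035%) reached 50% or more in at least one test.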
Mtb heat-shock: 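Assay on Mycobacterium tuberculosis, filed only as a heat shock assay from Cornell; the read-out is not stated. The concentration is filed as 10 mM, unlikely as a test dose, so the dose is not known. Higher reads as stronger inhibition (inferred: compounds with an IC50 in retests scored well above the rest). Of about 69,000 compounds tested this way, about 930 (1.4%) reached 50% or more in at least one test.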

Compound,LdMetRS,Mtb heat-shock
O=C(Nc1cc[nH]n1)c1ccc(COCC(F)(F)F)cc1,19.52,8.082
Cc1cc(NCCC(=O)NC(C)C)nc(-c2ccncc2)n1,13.15,15.3
Cn1nnc2c1CCN(CC1CC1)C2COCC1CC1 (stereo unspecified),7.692,-
Nc1ncc(-c2csc(NC(=O)C[C@H]3COCCN3)n2)cn1,6.553,-
CN(C)c1ccc(C(=O)N2CCC(c3cc4ncccc4[nH]3)CC2)cc1,10.47,-17.09
CCN(c1ccccc1)S(=O)(=O)c1cc(C(=O)O)cc2c1CCC2,-3.169,9.904
O=C(NCCc1nnc2n1CCC2)N1CCC2(CCCCC2)C1,3.846,2.892
CCc1nc(C2CCCN2C(=O)c2ccoc2C)no1 (stereo unspecified),3.681,-1.652
COc1ncccc1C(=O)N1CCc2c(ncnc2N2CCOCC2)C1,13.11,5.285
CCCOC1CCCN(C(=O)c2[nH]nc(C)c2Br)C1 (stereo unspecified),7.379,-14.61
Cc1cccn2c(NC(C)(C)C)c(C3CCN(C(=O)C4CC4)CC3)nc12,13.44,-0.817
CN(C)CCOCC1CN(C(=O)c2ccsc2)Cc2ccnn2C1.O=C(O)C(F)(F)F.O=C(O)C(F)(F)F (stereo unspecified),-,-26.69
CCN1CCC(NC(=O)NC2CCOc3ccc(Br)cc32)CC1 (stereo unspecified),12.45,-21.6
CS(=O)(=O)NCCC(=O)N1Cc2cnc(-c3ccccc3)nc2C1,-3.759,-33.04
COCc1nc(C(=O)N2CCCC2Cn2cc(C)cn2)cs1 (stereo unspecified),20.44,2.984
Cl.NCCCNS(=O)(=O)Cc1ccc(Br)cc1,-,-41.3
CC(=O)N1N=C(c2ccco2)OC1C(=O)N(C)CCc1ccccc1 (stereo unspecified),9.722,-2.033
CC(C)(C)OC(=O)NCC1CCN(C(=O)c2ccc(F)cc2F)C1 (stereo unspecified),6.747,32.44
Cc1cc(N2CCN3CCCCC3C2)n2nc(C)c(C)c2n1 (stereo unspecified),16.81,-1.28
CN(C)CCN(C)S(=O)(=O)CC1CCOCC1,6.407,-8.969
O=C(O)C(F)(F)F.[H][C@@]12COC[C@]1(CNS(=O)(=O)CC)CN(CCc1ccccc1)C2,-,14.28
Cc1nc[nH]c1CN(Cc1ccccc1F)C1CC(C)(C)NC(C)(C)C1,8.723,-
CCCS(=O)(=O)N1CCc2onc(CNc3ncccn3)c2C1,-1.613,-5.379
CCc1nn(C)c(Cl)c1CN1CCCC(c2cc(O)nc(C)n2)C1 (stereo unspecified),3.361,-24.48
FC(F)(F)COc1ccc(CSCc2ccon2)cn1,11.04,-28.07
CN1CCN(C(=O)c2ccc(Cn3cc(Br)cn3)cc2)CC1,17.29,-47.57
CCCn1nnnc1COC(=O)C1COc2ccc(Cl)cc2C1 (stereo unspecified),9.214,-27.21
COc1cccc(CN2C[C@@H]3CC[C@@](O)(c4ccccn4)[C@@H]3C2)c1OC,1.13,-
O=C(c1c[nH]nc1-c1cccc(F)c1)N1CCNC(c2ccccc2)C1 (stereo unspecified),12.15,12.16
CN(C)C(=O)CN1CCOCC2(C1)CN(c1ncc(F)cn1)CCO2 (stereo unspecified),9.351,-
CNCc1cn(C[C@H]2C[C@@H]3CCN2C[C@@H]3C(=O)NC2CCCCC2)nn1,4.407,-
CN(C)[C@@H]1CCN(c2ncc(F)cn2)[C@H]1Cc1cccnc1,13.36,-
Cc1nc(C)c(CN2CCC(N(C)Cc3noc(C4CC4)n3)C2)s1 (stereo unspecified),14.77,4.264
O=C(N1CCCCC1)N1CCCC(c2ncncc2-c2ccncc2)C1 (stereo unspecified),14.89,-3.517
CN(CCCOc1ccccc1)C(=O)CN1CCc2cncnc2C1,17.32,6.189
CC(C)C1CN(C(=O)c2cccs2)CCS1 (stereo unspecified),9.317,-12.88
COC(=O)c1sc2cccc(F)c2c1CNC(=O)C1CCCO1 (stereo unspecified),7.258,-9.306
O=C1CC(c2cccnc2)C2(CCN(C(=O)c3ccncc3)CC2)N1 (stereo unspecified),21.21,3.233
CCCNC(=O)COc1cc(C)c2c(C)nn(-c3ccccc3)c2n1,12.14,5.438
COCC(=O)N1CCC(c2nccn2CC2CC2)CC1,15.58,7.629
COCCN(CCOC)c1ncc(C#N)cc1Cl,16.71,-0.579
COCCN1CCN(C(C)C(=O)Nc2ccnn2C(C)C)CC1 (stereo unspecified),15.24,0.2746

2 of the entries, repeated:

* COc1cccc(CN2C[C@@H]3CC[C@@](O)(c4ccccn4)[C@@H]3C2)c1OC | LdMetRS: 1.13%
* Cc1cc(N2CCN3CCCCC3C2)n2nc(C)c(C)c2n1 (stereo unspecified) | LdMetRS: 16.81%; Mtb heat-shock: -1.28%

Data taken from ChEMBL document CHEMBL3988442, “University of Dundee, Small-Polar-MMV Screening Library” (2021).